Assay results taken from article PMC3045441.
Results are given in words; binding and its absence hold for the method and conditions named. In cells and extracts the contact can be indirect. Some results given as binding are weak or reduced against the parent protein; the word gives no strength. Where a sequence is shown, tags or fusion partners need not be part of it.

Target: T1, MYC-tagged full-length mouse RBM44 (second copy FLAG-tagged in the self-association experiment) (mouse) (UniProt Q3V089)
T1 sequence: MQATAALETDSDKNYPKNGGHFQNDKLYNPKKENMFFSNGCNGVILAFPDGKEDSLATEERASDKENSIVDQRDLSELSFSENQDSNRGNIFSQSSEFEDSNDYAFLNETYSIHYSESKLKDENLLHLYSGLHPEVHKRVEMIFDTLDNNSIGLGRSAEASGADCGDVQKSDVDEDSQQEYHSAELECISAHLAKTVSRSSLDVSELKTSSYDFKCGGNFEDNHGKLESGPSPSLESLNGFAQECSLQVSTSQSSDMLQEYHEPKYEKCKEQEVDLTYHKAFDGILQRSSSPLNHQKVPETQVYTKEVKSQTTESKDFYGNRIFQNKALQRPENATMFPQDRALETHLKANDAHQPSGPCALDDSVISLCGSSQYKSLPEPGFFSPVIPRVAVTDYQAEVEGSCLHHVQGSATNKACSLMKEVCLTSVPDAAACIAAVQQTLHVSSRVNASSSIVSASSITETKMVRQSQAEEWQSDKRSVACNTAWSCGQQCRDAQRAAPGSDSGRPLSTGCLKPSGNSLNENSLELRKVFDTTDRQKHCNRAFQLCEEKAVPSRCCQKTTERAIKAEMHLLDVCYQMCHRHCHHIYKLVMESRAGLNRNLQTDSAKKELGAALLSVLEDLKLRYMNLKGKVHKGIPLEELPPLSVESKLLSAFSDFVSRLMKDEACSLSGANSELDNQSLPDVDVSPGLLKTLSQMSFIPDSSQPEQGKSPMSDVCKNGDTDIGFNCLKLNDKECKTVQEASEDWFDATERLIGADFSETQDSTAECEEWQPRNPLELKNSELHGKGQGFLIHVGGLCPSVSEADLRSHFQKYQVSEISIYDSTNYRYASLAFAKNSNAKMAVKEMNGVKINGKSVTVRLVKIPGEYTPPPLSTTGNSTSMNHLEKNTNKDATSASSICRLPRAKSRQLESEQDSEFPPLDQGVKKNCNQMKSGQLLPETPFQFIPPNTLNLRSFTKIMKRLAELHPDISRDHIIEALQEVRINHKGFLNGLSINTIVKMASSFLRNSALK
Experiment: co-IP; flag-tagged Tex14 or Rbm44 vector co-transfected with myc-tagged Rbm44 vector in HEK293T; immunoprecipitation with anti-FLAG or anti-MYC antibodies, western blot with anti-FLAG or anti-MYC; Protein G as control

B1: FLAG-tagged full-length mouse TEX14 (protein, UniProt Q7M6U3 1-1450)
chain: MSRGAPFPVPCPVLLGTFTDDSLEAQLHEYAKQGNCVKLKKILKKGVCVDAVNTQGQSALFVAALLGHVKLVDVLVDYGSDPNHRCFDGSTPVHAAAFSGNQWILSKLLTAGGDLRLHDEKGRNPQAWALTAGKDRSTQMVEFMQRCTSHMKAIIQGFSYDLLKKIDSPQRLIGSPPWFGSLIQGSPNSSPNRQLKPGIISAQNIYSFGFGKFYLTSGMQLTYPGSLPVIGEKEVVQADDEPTFSFFSGPYMVMTNLVWNRSRVTVKELNLPTRPHCSRLRLADLLIAEQEHSSNLRHPNLLQLMAVCLSRDLEKIRLVYERITVGTLFSVLHERRSQFPVLHMEVIVHLLLQVADALIYLHSRGFIHRSLSSYAVHIVSAGEARLTNLEYLTESQDSGAHRNVTRMPLPTQLYNWAAPEVVLQKAATVKSDIYSFSVIIQEILTDSIPWNGLDGSLVKETIALGNYLEADVRLPEPYYDIVKSGIHAKQKNRTMNLQDIRYILKNDLKEFIGAQKTQPTESPRGQSYEPHPDVNICLGLTSEYQKDPPDLDIKELKEMGSQPHSPTDHSFLTVKPTLAPQTLDSSLSAQKPDNANVPSPPAACLAEEVRSPTASQDSLCSFEINEIYSGCLTLGTDKEEECLGTAASPEGDRPNQGDELPSLEEELDKMERELHCFCEEDKSISEVDTDLLFEDDDWQSDSLGSLNLPEPTREAKGKTSSWSKTDEYVSKCVLNLKISQVMMQQSAEWLRKLEQEVEELEWAQKELDSQCSSLRDASLKFANAKFQPAVGPPSLAYLPPVMQLPGLKQPENGGTWLTLARSPGNEREFQEGHFSKKPEKLSACGWKPFTQVSEESRGDCSELNNQLPTLRGPGKQSTGEQLPSTQEARESLEKNTNQNSRSMASVSSEIYATKSRNNEDNGEAHLKWRLAVKEMAEKAVSGQLLLPPWNPQSSAPFESKVENESTPLPRPPIRGPESTEWQHILEYQRENDEPKGNTKFGKMDNSDCDKNKHSRWTGLQRFTGIRYPFFRNHEQPEQNEASQASCDTSVGTEKFYSTSSPIGDDFERFQDSFAQRQGYVEENFQIREIFEKNAEILTKPQFQAIQCAEDKQDETLGETPKELKEKNTSLTDIQDLSSITYDQDGYFKETSYKTPKLKHAPTSASTPLSPESISSAASHYEDCLENTTFHVKRGSTFCWNGQEAMRTLSAKFTTVRERAKSLESLLASSKSLPAKLTDSKRLCMLSETGSSNVSAAFVTSTHATKRKSLPRELAEATSQQHLDELPPPAQELLDEIEQLKQQQVSSLASHENTARDLSVTNKDKKHLEEQETNSSKDSSFLSSREIQDLEDTERAHSSLDEDLERFLQSPEENTALLDPTKGSTREKKNKDQDVVEQKRKKKESIKPERRESDSSLGTLEEDELKPCFWKRLGWSEPSRIIVLDQSDLSD
binding: binds
